This assay relates to B6C3F1 mice, ip Sarcoma M5076, median survival T/C. The assay can be described thus: NCI In Vivo Anticancer Drug Screen. Data for tumor model Sarcoma M5076 (intraperitoneal) in B6C3F1 mice. The settings on record: T/C endpoint: median survival time, higher T/C = longer survival. The essentials:
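Tumour cells were transplanted into mice, compound or vehicle was given, survival of both groups was followed, and the treated figure was expressed over the control figure.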

Setting [1] is: dose: 15.0 mg/kg/injection, schedule: Q04DX004 (ip), vehicle: Klucel (hydroxypropylcellulose) (HPC).
The mark [2] stands for this setting: dose: 25.0 mg/kg/injection, schedule: Q04DX004 (ip), vehicle: Klucel (hydroxypropylcellulose) (HPC).
Where [3] appears, read: dose: 50.0 mg/kg/injection, schedule: Q04DX004 (ip), vehicle: Klucel (hydroxypropylcellulose) (HPC).
Where [4] appears, read: dose: 800.0 mg/kg/injection, schedule: Q04DX004 (ip), vehicle: Klucel (hydroxypropylcellulose) (HPC).
The mark [5] stands for this setting: dose: 100.0 mg/kg/injection, schedule: Q04DX004 (ip), vehicle: saline with Tween-80.
[6] abbreviates: dose: 200.0 mg/kg/injection, schedule: Q04DX004 (ip), vehicle: saline with Tween-80.
Setting [7] is: dose: 800.0 mg/kg/injection, schedule: Q04DX004 (ip), vehicle: saline with Tween-80.
Setting [8] is: dose: 400.0 mg/kg/injection, schedule: Q04DX004 (ip), vehicle: Klucel (hydroxypropylcellulose) (HPC).
Setting [9] is: dose: 400.0 mg/kg/injection, schedule: Q04DX004 (ip), vehicle: saline with Tween-80.
Where [10] appears, read: dose: 200.0 mg/kg/injection, schedule: Q04DX004 (ip), vehicle: Klucel (hydroxypropylcellulose) (HPC).
The mark [11] stands for this setting: dose: 25.0 mg/kg/injection, schedule: Q04DX004 (ip), vehicle: saline with Tween-80.

The list is a part of this screen's results and no random one: it gathers tests that were run many times, whatever their T/C, doses with no T/C, and many T/C values between a quarter and a half above the control. Further doses and runs are listed elsewhere. T/C is the treated group as % of the vehicle group. Some doses have a count of surviving animals in place of a T/C: the source holds a T/C of zero for them, seemingly a mark for toxic or unscored doses. Some survivor counts are full or nearly so, which does not show that the dose was tolerated: survival well below the control is almost never listed, so the zero probably covers shortened survival too. Counts of survivors are from the toxicity check (mostly the fifth day) where no day follows; animals may have died later. Schedules are NCI's codes, taken here to give the interval after Q, in days (D) or hours (H), and the number of doses after X. Some doses were run more than once; the results are listed from low to high. Some molecules as drawn cover several salts, stereoisomers or complexes of the source; a dose is that of the sample tested. Where survival is the endpoint, the PubChem record calls one and a half times the control and up active, and a quarter to a half above the control has no call in these data; cut-offs in other NCI protocols can differ. Some T/C values carry the count of animals alive at the toxicity check (mostly the fifth day); where none is given, no animal had died by that day.

`COc1c(C=O)c2c(c(OC)c1OC)-c1ccc(OC)c(=O)cc1[C@@H](NC(C)=O)CC2`: the T/C (dose: 5.4 mg/kg/injection, schedule: Q04DX004 (ip), vehicle: Klucel (hydroxypropylcellulose) (HPC)) is 141 % of control; the T/C (dose: 9.0 mg/kg/injection, schedule: Q04DX004 (ip), vehicle: Klucel (hydroxypropylcellulose) (HPC)) was 149 % of control [9 of 10 alive on day 14]; the T/C under setting [1] was 136 % of control; the T/C (dose: 30.0 mg/kg/injection, schedule: Q04DX004 (ip), vehicle: Klucel (hydroxypropylcellulose) (HPC)) was 126 % of control. The survivor count is, setting by setting: under setting [1], 3 of 10 on day 14; under setting [2], 4 of 10 on day 14; (dose: 41.7 mg/kg/injection, schedule: Q04DX004 (ip), vehicle: Klucel (hydroxypropylcellulose) (HPC)) 5 of 10 on day 14; (dose: 60.0 mg/kg/injection, schedule: Q04DX004 (ip), vehicle: Klucel (hydroxypropylcellulose) (HPC)) 8 of 10 on day 14.

As for `COC1CC2C=C(C)/C=C/C=C/C(=O)NC(c3ccccc3)C/C=C/CCC(O)CC(=O)C2=C1O` (centres undefined), the survivor count under setting [3] is listed as 0 of 10 on day 14.

Take `O=C1[C@@H]2C3C=CC([C@H]4C(=O)N(CO)C(=O)[C@@H]34)[C@@H]2C(=O)N1CO`: under setting [4], the survivor count is 0 of 10 on day 14.

`Oc1c(Cl)cc(Cl)cc1C1Nc2ccccc2-n2cccc21` (centres undefined): the survivor count is 10 of 10 on day 14 under setting [5] and 10 of 10 on day 14 under setting [6].

For the compound `Nc1ccc2c(c1)C1(CCC2)NC(=O)NC1=O` (centres undefined), the survivor count under setting [7] was 9 of 10 on day 14.

Take `Cc1noc2nc(-c3ccccc3)cc(N3CCN(C)CC3)c12`: the survivor count (dose: 400.0 mg/kg/injection, schedule: Q04DX004 (ip), vehicle: other) is recorded as 3 of 10 on day 14.

As for `CN1C2C=CC(=O)C1C1C(=O)N(c3ccccc3)C(=O)C12` (centres undefined), the survivor count by setting is: under setting [8], 0 of 10 on day 14; under setting [4], 0 of 10 on day 14.

On to `CCOC(=O)c1cc(-c2ccccc2)c(OC)c(=O)nc1-c1ccccc1`, for which the survivor count is 10 of 10 on day 14 under setting [5], 10 of 10 on day 14 under setting [6], 10 of 10 on day 14 under setting [9] and 10 of 10 on day 14 under setting [7].

Consider `NC(N)=NS(=O)(=O)c1ccc(NCc2c3ccccc3nc3ccccc23)cc1`, for which the T/C is, setting by setting: under setting [3], 128 % of control; (dose: 100.0 mg/kg/injection, schedule: Q04DX004 (ip), vehicle: Klucel (hydroxypropylcellulose) (HPC)) 149 % of control; under setting [10], 128 % of control [9 of 10 alive on day 14].

For the compound `CCc1nc(N)nc(N)c1-c1ccc(Cl)c(N=[N+]=[N-])c1`, the survivor count by setting is: (dose: 67.0 mg/kg/injection, schedule: Q04DX004 (ip), vehicle: water) 0 of 10 on day 14; (dose: 134.0 mg/kg/injection, schedule: Q04DX004 (ip), vehicle: water) 0 of 10 on day 14. Also, the T/C (dose: 268.0 mg/kg/injection, schedule: Q04DX004 (ip), vehicle: distilled water + Tween-80) is 141 % of control.

Turning to `CN=NN(C)C(=O)NC`, the T/C by setting is: (dose: 12.5 mg/kg/injection, schedule: Q04DX004 (ip), vehicle: saline) 136 % of control; (dose: 18.0 mg/kg/injection, schedule: Q04DX004 (ip), vehicle: saline, evaluated on day 37) 131 % of control; (dose: 18.0 mg/kg/injection, schedule: Q04DX004 (ip), vehicle: saline, evaluated on day 60) 133 % of control; (dose: 30.0 mg/kg/injection, schedule: Q04DX004 (ip), vehicle: saline) 149 % of control. For the same compound, the survivor count (dose: 200.0 mg/kg/injection, schedule: Q04DX004 (ip), vehicle: saline) is on record as 0 of 10 on day 14.

Consider `COc1cc2c(c3c1c(=O)c1cccc(F)c1n3C)C=CC(C)(C)O2`, for which, under setting [10], the T/C was 129 % of control. Besides, the survivor count runs as follows: under setting [8], 8 of 10 on day 14; under setting [4], 0 of 10 on day 14.

Turning to `CS(=O)(=O)OCCCNCCCOS(C)(=O)=O`, the survivor count (dose: 160.0 mg/kg/injection, schedule: Q04DX005 (ip), vehicle: saline) was 4 of 8 on day 17.

With `CCOP(=S)(OCC)OC(=O)C(C)SSC` (centres undefined) (tested in a mixture with another compound), the survivor count runs as follows: (dose: 300.0 mg/kg/injection, schedule: Q04DX004 (ip), vehicle: saline with Tween-80) 1 of 10 on day 14; (dose: 600.0 mg/kg/injection, schedule: Q04DX004 (ip), vehicle: saline with Tween-80) 0 of 10 on day 14.

With `CCCC1CCC(=C2C(=O)CCC2=O)O1` (centres undefined), the survivor count under setting [6] is reported as 6 of 10 on day 14 and the survivor count under setting [9] was 3 of 10 on day 14.

`CC(C)CC(NC(=O)CF)C(=O)O` (centres undefined): the survivor count under setting [11] was 3 of 10 on day 14.

With `Cn1cc(NC(=O)c2cc(NC(=O)c3cc(NC=O)cn3C)cn2C)cc1C(=O)NCCC(=N)N`, the survivor count (dose: 200.0 mg/kg/injection, schedule: Q04DX004 (ip), vehicle: water) is reported as 6 of 10 on day 14.

On to `COc1cccc2c1C(=O)C1=C(C2=O)c2c(O)cc(CO)cc2C(O)C1O` (centres undefined), for which the survivor count under setting [5] is recorded as 0 of 10 on day 14.

On to `N=C1C=CC2C(=Nc3ccccc3[N+]2=O)N1CCO` (centres undefined), for which the survivor count under setting [9] is 0 of 10 on day 14.

Consider `COc1cc(C(C)(C)C)cc(OC)c1C(O)(c1c(OC)cc(C(C)(C)C)cc1OC)c1c(OC)cc(C(C)(C)C)cc1OC`, for which, under setting [9], the survivor count is listed as 0 of 10 on day 14.

In the case of `CC(C)c1cc(C(=O)O)c(O)c(C(C)C)c1.CC(C)c1cc(C(=O)O)c(O)c(C(C)C)c1.[Cu]`, the survivor count under setting [11] is 9 of 10 on day 14; the survivor count (dose: 50.0 mg/kg/injection, schedule: Q04DX004 (ip), vehicle: saline with Tween-80) was 6 of 10 on day 14; the survivor count under setting [5] was 0 of 10 on day 14; the survivor count under setting [6] is 0 of 10 on day 14.

With `CCOc1ccc(N2C(=O)C(=O)C(C(C)=O)C2=O)cc1` (centres undefined), the survivor count under setting [4] is 3 of 10 on day 14.

With `N#CC1C(=O)NC(=O)C(C#N)C1C1C(=O)NC2CCCCC21` (centres undefined), the survivor count (dose: 700.0 mg/kg/injection, schedule: Q04DX004 (ip), vehicle: saline with Tween-80) is on record as 10 of 10.

As to `Cn1c(=O)c2nncnc2n(C)c1=O`, the survivor count reads like this: under setting [9], 1 of 10 on day 14; under setting [7], 0 of 10 on day 14.

Take `C=CCOc1cc2c(cc1C(C)c1ccc(OC)cc1)OCO2` (centres undefined): the T/C by setting is: under setting [8], 133 % of control; (dose: 666.67 mg/kg/injection, schedule: Q04DX004 (ip), vehicle: Klucel (hydroxypropylcellulose) (HPC)) 129 % of control; (dose: 1111.12 mg/kg/injection, schedule: Q04DX004 (ip), vehicle: Klucel (hydroxypropylcellulose) (HPC)) 149 % of control. Besides, where the note is “dose: 600.0 mg/kg/injection, schedule: Q04DX004 (ip), vehicle: Klucel (hydroxypropylcellulose) (HPC)”, the survivor count is recorded as 3 of 10 on day 14.

With `CN(C)CCCOc1nc2c(c(=O)n(C)c(=O)n2C)n1C` (tested in a mixture with another compound), the T/C (dose: 12.5 mg/kg/injection, schedule: Q04DX004 (ip), vehicle: Klucel (hydroxypropylcellulose) (HPC)) is 128 % of control; the T/C under setting [2] was 141 and 147 % of control. In addition, under setting [8], the survivor count is on record as 0 of 8 on day 14.

As for `C/C=C(\C)C(=O)OC1C(C)=C2C(C1OC(=O)CCCCC)C(C)(OC(C)=O)CC(OC(=O)CCC)C1(O)C2OC(=O)C1(C)O` (centres undefined), the survivor count by setting is: (dose: 4.0 mg/kg/injection, schedule: Q04DX004 (ip), vehicle: Klucel (hydroxypropylcellulose) (HPC)) 3 of 10 on day 14 and 5 of 10 on day 14; (dose: 8.0 mg/kg/injection, schedule: Q04DX004 (ip), vehicle: Klucel (hydroxypropylcellulose) (HPC)) 0 of 10 on day 14; (dose: 16.0 mg/kg/injection, schedule: Q04DX004 (ip), vehicle: Klucel (hydroxypropylcellulose) (HPC)) 0 of 10 on day 14.

In the case of `O=CC(CO)CC(C=O)n1cnc2c(=O)[nH]cnc21` (centres undefined), the T/C (dose: 150.0 mg/kg/injection, schedule: Q04DX004 (ip), vehicle: saline) is 130 % of control. In addition, for the setting “dose: 600.0 mg/kg/injection, schedule: Q04DX004 (ip), vehicle: saline”, the survivor count is 5 of 10 on day 14.

These data come from PubChem BioAssay AID292 (DTP/NCI, 2004).
